Source: the supplement of paper PMC5407854, “Inhibitor of ppGalNAc-T3-mediated O-glycosylation blocks cancer cell invasiveness and lowers FGF23 levels” (eLife, 2017)
The other results are listed elsewhere or left out. Most entries show no effect beyond the scatter of the controls.

How the values were obtained:
ppGalNAc-T3 sensor = experiment: T3 sensor activation Q score (MG/GFP ratio z-score vs DMSO controls) (SD units); higher = more sensor activation (inhibition of ppGalNAc-T3 glycosylation); conditions: HEK293 sensor cells; 10 µM; 6 h
Description: (§1)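 Cells were treated with compound at 10 uM for 6 h, then MG/GFP ratio was read by flow cytometry (10,000 cells per well, duplicate wells). Q = (R - R_neg)/SD_neg relative to DMSO vehicle controls; the signal rises when the glycosyltransferase is inhibited.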

ppGalNAc-T2 sensor = experiment: T2 sensor activation Q score (MG/GFP ratio z-score vs DMSO controls) (SD units); higher = more sensor activation (inhibition of ppGalNAc-T2 glycosylation); conditions: HEK293 sensor cells; 10 µM; 6 h
Description: as §1

SMILES | T3 sensor activation Q score (ppGalNAc-T3 sensor) | T2 sensor activation Q score (ppGalNAc-T2 sensor)
O=C1CC(NCCCN2CCOCC2)C(=O)N1c1ccc(Br)cc1 (stereo not given) | -1.5 | -0.815
Cc1ccc(C)c(NCC(=O)Nc2c(C)cccc2C)c1 | -0.135 | -1.06
CCOc1ccccc1NC(=O)Nc1ccc(Cl)cc1 | 0.525 | 0.515
O=C1c2ccc(F)cc2C(=O)N1CCO | 0.02 | -0.95
CCN(CC)C(=O)C1CCCN(Cc2ccccc2)C1 (stereo not given) | 0.78 | -1.02
Clc1ccc(CSc2nccn2Cc2ccccc2)cc1 | 0.23 | 0.08
Nc1ccc(S(=O)(=O)NCCO)cc1 | 2.15 | 1.22
CCCN(CCO)Cc1c(Cl)cccc1Cl | 1.77 | 0.545
CC(CCN1CCN(c2ccccn2)CC1)c1ccccc1 (stereo not given) | -0.225 | 0.89
Cc1ccccc1N1CCN(Cc2cc3c(cc2[N+](=O)[O-])OCO3)CC1 | -0.34 | -0.145
Cc1ccc(NC(=O)Nc2ccccc2)c(Br)c1 | 0.17 | 1.25
CNC(=O)Nc1ccc(C(=O)O)cc1 | 1.16 | -0.23
COc1ccc(C)cc1NC(=O)C(c1ccccc1)c1ccccc1 | -0.42 | -1.16
CN1CCN(C(=O)c2ccc(S(=O)(=O)N3CCOCC3)cc2)CC1 | 0.31 | -0.1
COc1nc(Nc2cc(Cl)ccc2OC)nc(OC)n1 | 1.24 | 0.4
C=CCSc1nc(O)cc(=O)n1C | 0.43 | 1.72
CCc1cccc(NC2CC(=O)N(c3cccc(Cl)c3)C2=O)c1 (stereo not given) | -0.17 | -0.395
NC(=O)CNC(=O)c1ccccc1 | -0.96 | -1.82
Nn1cnc2scc(-c3ccccc3)c2c1=O | 0.415 | 0.08
CCc1nc(NN)c2c3c(sc2n1)CCC3 | 1.15 | 0.745
O=C(Nc1ccc(Cl)cc1)c1ccc([N+](=O)[O-])o1 | -0.815 | -1.14
Cc1ccc(N2C(=O)Cn3c2nc2c3c(=O)n(C)c(=O)n2C)cc1C | 0.31 | 0.355
Cc1ccc(C)c2c(N)c3c(nc12)CCCCC3 | 0.2 | -1.16
c1cc(-c2nc3ccncc3[nH]2)ccn1 | -0.385 | 0.325
CCc1ccccc1NS(=O)(=O)c1ccc(Cl)cc1 | -0.635 | -0.605

SMILES | T3 sensor activation Q score (ppGalNAc-T3 sensor) | T2 sensor activation Q score (ppGalNAc-T2 sensor)
CC(=O)Nc1ccc(NC2=C(N3CCCCC3)C(=O)c3ccccc3C2=O)cc1 | 0.08 | 1.22
COc1ccc(-n2c(C)c([N+](=O)[O-])c3ccc(O)cc32)cc1 | 0.19 | 1.25
CC(C)c1ccc(NC(=O)[C@@H]2C[C@@H]2c2ccccc2)cc1 | -0.405 | 0.76
CC(=O)c1cccc(Nc2nc(-c3ccccc3)cs2)c1 | -0.305 | -0.515
NS(=O)(=O)C#Cc1ccccc1 | 0.35 | 0.61
Cc1ccc(C(=O)CC(=O)c2cccc(F)c2)c(O)c1 | -0.425 | 1.23
CN(C)c1ccc(/C=C/CN2CCN(c3ccccc3F)CC2)cc1 | 0.2 | 1.06
COc1ccccc1NC(=O)c1cccs1 | -0.65 | -0.505
O=C(Nc1cccc(Cl)c1)N1CCN(c2ccc([N+](=O)[O-])cc2)CC1 | 0.24 | -0.445
CCCC(C)(C)NC(=O)c1ccccc1 | 0.485 | -0.165
COc1ccccc1C(=O)Nc1ccc(C)c(Cl)c1 | -0.405 | -0.97
COc1ccc(C2C(C(C)=O)=C(O)C(=O)N2CCCO)cc1 (stereo not given) | -0.61 | 0.245
Cc1c(Cl)cccc1NC(=O)C1CCN(C(=O)Cc2ccccc2)CC1 | -0.36 | 0.945
O=C(O)CCCCc1cc2c(s1)CCCC(=O)N2 | 0.03 | 0.985
O=C(c1ccc([N+](=O)[O-])cc1Cl)N1CCOCC1 | 0.945 | 0.51
Cc1cccc(N2C(=O)CC(N3CCN(c4ccc(Cl)cc4)CC3)C2=O)c1 (stereo not given) | -0.29 | -0.145
COc1ccc(NCc2ccccc2)cc1 | -0.055 | 0.405
COc1ccc(/C=C(/NC(=O)c2ccco2)C(=O)Nc2ccc(Cl)cc2)cc1 | -1 | -1.06
COc1cc(CN2CCC(C)CC2)c([N+](=O)[O-])cc1OC | 1 | 1.22
CC(=O)c1cccc(NC(=O)COc2cc(C)ccc2C(C)C)c1 | -0.255 | -0.115
COc1ccc(S(=O)(=O)Nc2ccccc2C)cc1 | -0.065 | -0.515
CC(C)CS(=O)(=O)c1cccs1 | -0.05 | -0.9
Fc1cccc(-c2nc3cc(N4CCOCC4)c(N4CCOCC4)cc3[nH]2)c1 | 0.025 | -1.02
Cc1ccc(NC(=O)CCC(=O)O)cc1I | -0.505 | 1.15
CCc1ccccc1NS(=O)(=O)c1cc(Cl)ccc1OC | -0.43 | 0.185

Quoted at random: 2 compounds from above, in no set order.
SMILES | T3 sensor activation Q score (ppGalNAc-T3 sensor) | T2 sensor activation Q score (ppGalNAc-T2 sensor)
O=C(O)CCCCc1cc2c(s1)CCCC(=O)N2 | 0.03 | 0.985
Fc1cccc(-c2nc3cc(N4CCOCC4)c(N4CCOCC4)cc3[nH]2)c1 | 0.025 | -1.02
